Laboratory results reported in paper PMC4755750.

Target: T1, CIDEA-HA (mouse) (UniProt O70302)
T1 sequence: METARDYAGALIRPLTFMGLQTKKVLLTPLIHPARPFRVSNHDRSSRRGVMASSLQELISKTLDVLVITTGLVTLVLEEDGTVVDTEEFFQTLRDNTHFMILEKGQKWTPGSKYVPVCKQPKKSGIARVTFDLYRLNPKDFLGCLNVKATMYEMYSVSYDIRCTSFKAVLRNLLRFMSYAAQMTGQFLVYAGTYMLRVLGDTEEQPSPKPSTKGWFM
Assay: co-IP; anti-HA or anti-V5 antibody on Dynabeads Protein G incubated with lysate of transfected cells (Hela named for Figure 6K); lysis in 50 mM Tris pH 8.0, 150 mM NaCl, 1% TRITON X-100; Western blot

hLIPIN-1γ-v5 (human) (enzyme)
binding: no binding

No constants are given. Whether binding was seen depends on the method and setting. In cells and extracts the contact can be indirect. Where a sequence is shown, tags or fusion partners need not be part of it.
